Eight sequences from article PMC9233167 can be followed below.

For data set [1], the system named is TmMYB39 (GST-TmMYB39) (Taxus media). Briefly: EMSA. The note with it: EMSA with Beyotime GS009 kit per manufacturer; competitors 20x and 200x; pH and temperature not stated; recombinant protein; label: 5' 6-FAM (labeled probe), unlabeled as cold probe. (In general: In EMSA bound probe runs differently from free probe, usually more slowly.)
The test system is the same in data set [2]. Description: competition with a labelled probe. The note with it: EMSA with Beyotime GS009 kit per manufacturer, competitors 20x and 200x, pH and temperature not stated, recombinant protein.

The exact form of at least one protein or probe is not confirmed. For some assays here: A negative result means that nothing was seen under these conditions. For some assays here: At least one verdict was read from the data and is not stated in words by the source.

In the case of “CTATTTCTGCAGTTATAGTTTTGG (double strand) [pTBT probe]”, the binding result in data set [1] was “binds”.

Take “CTATTTCTGCCCGGGTAGTTTTGG (double strand) [pTBT mutant cold probe]”: the binding result in data set [2] (excess unlabeled mutant vs labeled N7) is “no binding”.

Regarding “TGGATCTATCCCGGGTCGTTTGCA (double strand) [T10OH mutant cold probe]”, the binding result in data set [2] (excess unlabeled mutant vs labeled N5) is “no binding”.

As for “TGGATCTATTGGTTGTCGTTTGCA (double strand) [T10OH probe]”, in data set [1], the binding result is “binds”.

Consider “TTCACTTTTCCCGGGATTACACCT (double strand) [T13OH mutant cold probe]”, for which, in data set [2] (excess unlabeled mutant vs labeled N3), the binding result is “no binding”.

Take “TTCACTTTTTGGTTAATTACACCT (double strand) [T13OH probe]”: in data set [1], the binding result is listed as “binds”.

As for “TTTTTTTGTCCCGGGGATTAATTG (double strand) [pGGPPS mutant cold probe]”, in data set [2] (excess unlabeled mutant vs labeled N1), the binding result was “no binding”.

Consider “TTTTTTTGTTGGTTAGATTAATTG (double strand) [pGGPPS probe]”, for which the binding result in data set [1] is on record as “binds”.
